{"source": "PubChem BioAssay AID1259254 – NCATS | 2017", "test": "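Gene knock-downs that lead to re-replication, shown by excess G2 DNA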 (primary screen)", "system": "human HCT116 colorectal cancer cells", "reagents": "single siRNA against human genes", "time to read-out": "3 days", "detection": "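Nuclei stained with Hoechst and imaged; cell-cycle phase assigned by DNA content; G2 share scaled per plate, non-targeting siRNA 0%, GMNN siRNA 100%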", "scale": "G2 robust z-score and G2 cells, % of GMNN control: higher = more G2 cells, more excess DNA replication", "hit rule": "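Active siRNAs have a G2 robust z of 5 or more median absolute deviations over the median, which in these data means about 38% or higher of GMNN control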", "note": "This is an unselected part of about 59,000 reagents tested. About 1,550 of them (2.6%) count as active. 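G2 share is only a proxy for re-replication; each gene was hit by three separate siRNAs, and active genes were retested.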 The numbers tell different reagents against one gene apart. Further read-outs or replicates are left out here. The record does not give: the amount of reagent."}
{"target gene": "LARP7", "siRNA no.": 1, "G2 robust z-score": -1.23, "G2 cells, % of GMNN control": -5.67, "call": "inactive"}
{"target gene": "LARP7", "siRNA no.": 2, "G2 robust z-score": 6.52, "G2 cells, % of GMNN control": 48.9, "call": "active"}
{"target gene": "LARP7", "siRNA no.": 3, "G2 robust z-score": 0.172, "G2 cells, % of GMNN control": 4.18, "call": "inactive"}
{"target gene": "MICU3", "siRNA no.": 1, "G2 robust z-score": -0.622, "G2 cells, % of GMNN control": -1.41, "call": "inactive"}
{"target gene": "MICU3", "siRNA no.": 2, "G2 robust z-score": 0.337, "G2 cells, % of GMNN control": 5.34, "call": "inactive"}
{"target gene": "MICU3", "siRNA no.": 3, "G2 robust z-score": -0.0744, "G2 cells, % of GMNN control": 2.44, "call": "inactive"}
{"target gene": "HMGB2", "siRNA no.": 1, "G2 robust z-score": 1.14, "G2 cells, % of GMNN control": 11, "call": "inactive"}
{"target gene": "HMGB2", "siRNA no.": 2, "G2 robust z-score": 1.66, "G2 cells, % of GMNN control": 14.6, "call": "inactive"}
{"target gene": "HMGB2", "siRNA no.": 3, "G2 robust z-score": 2.03, "G2 cells, % of GMNN control": 17.3, "call": "inactive"}
{"target gene": "IRF2BP1", "siRNA no.": 1, "G2 robust z-score": -1.01, "G2 cells, % of GMNN control": -4.11, "call": "inactive"}
{"target gene": "IRF2BP1", "siRNA no.": 2, "G2 robust z-score": -0.81, "G2 cells, % of GMNN control": -2.73, "call": "inactive"}
{"target gene": "IRF2BP1", "siRNA no.": 3, "G2 robust z-score": 2.19, "G2 cells, % of GMNN control": 18.4, "call": "inactive"}
{"target gene": "TMBIM1", "siRNA no.": 1, "G2 robust z-score": 1.98, "G2 cells, % of GMNN control": 16.9, "call": "inactive"}
{"target gene": "TMBIM1", "siRNA no.": 2, "G2 robust z-score": -0.836, "G2 cells, % of GMNN control": -2.91, "call": "inactive"}
{"target gene": "TMBIM1", "siRNA no.": 3, "G2 robust z-score": 4.77, "G2 cells, % of GMNN control": 36.5, "call": "inactive"}
{"target gene": "SRSF6", "siRNA no.": 1, "G2 robust z-score": 0.0622, "G2 cells, % of GMNN control": 3.4, "call": "inactive"}
{"target gene": "SRSF6", "siRNA no.": 2, "G2 robust z-score": 1.47, "G2 cells, % of GMNN control": 13.3, "call": "inactive"}
{"target gene": "SRSF6", "siRNA no.": 3, "G2 robust z-score": -0.0567, "G2 cells, % of GMNN control": 2.57, "call": "inactive"}
{"target gene": "ARHGEF38", "siRNA no.": 1, "G2 robust z-score": -0.686, "G2 cells, % of GMNN control": -1.86, "call": "inactive"}
{"target gene": "ARHGEF38", "siRNA no.": 2, "G2 robust z-score": -0.0527, "G2 cells, % of GMNN control": 2.6, "call": "inactive"}
{"target gene": "ARHGEF38", "siRNA no.": 3, "G2 robust z-score": 2.04, "G2 cells, % of GMNN control": 17.3, "call": "inactive"}
{"target gene": "RNF152", "siRNA no.": 1, "G2 robust z-score": -0.91, "G2 cells, % of GMNN control": -3.43, "call": "inactive"}
{"target gene": "RNF152", "siRNA no.": 2, "G2 robust z-score": 0.647, "G2 cells, % of GMNN control": 7.52, "call": "inactive"}
{"target gene": "RNF152", "siRNA no.": 3, "G2 robust z-score": 4.33, "G2 cells, % of GMNN control": 33.4, "call": "inactive"}
